Measured values from article PMC11383612.
Results are given in words; binding and its absence hold for the method and conditions named. Binding seen in cells or lysates may run through a third protein. Some results given as binding are weak or reduced against the parent protein; the word gives no strength.

Chains of the proteins cited; added tags and fusions are not shown.
UniProt Q3TKT4: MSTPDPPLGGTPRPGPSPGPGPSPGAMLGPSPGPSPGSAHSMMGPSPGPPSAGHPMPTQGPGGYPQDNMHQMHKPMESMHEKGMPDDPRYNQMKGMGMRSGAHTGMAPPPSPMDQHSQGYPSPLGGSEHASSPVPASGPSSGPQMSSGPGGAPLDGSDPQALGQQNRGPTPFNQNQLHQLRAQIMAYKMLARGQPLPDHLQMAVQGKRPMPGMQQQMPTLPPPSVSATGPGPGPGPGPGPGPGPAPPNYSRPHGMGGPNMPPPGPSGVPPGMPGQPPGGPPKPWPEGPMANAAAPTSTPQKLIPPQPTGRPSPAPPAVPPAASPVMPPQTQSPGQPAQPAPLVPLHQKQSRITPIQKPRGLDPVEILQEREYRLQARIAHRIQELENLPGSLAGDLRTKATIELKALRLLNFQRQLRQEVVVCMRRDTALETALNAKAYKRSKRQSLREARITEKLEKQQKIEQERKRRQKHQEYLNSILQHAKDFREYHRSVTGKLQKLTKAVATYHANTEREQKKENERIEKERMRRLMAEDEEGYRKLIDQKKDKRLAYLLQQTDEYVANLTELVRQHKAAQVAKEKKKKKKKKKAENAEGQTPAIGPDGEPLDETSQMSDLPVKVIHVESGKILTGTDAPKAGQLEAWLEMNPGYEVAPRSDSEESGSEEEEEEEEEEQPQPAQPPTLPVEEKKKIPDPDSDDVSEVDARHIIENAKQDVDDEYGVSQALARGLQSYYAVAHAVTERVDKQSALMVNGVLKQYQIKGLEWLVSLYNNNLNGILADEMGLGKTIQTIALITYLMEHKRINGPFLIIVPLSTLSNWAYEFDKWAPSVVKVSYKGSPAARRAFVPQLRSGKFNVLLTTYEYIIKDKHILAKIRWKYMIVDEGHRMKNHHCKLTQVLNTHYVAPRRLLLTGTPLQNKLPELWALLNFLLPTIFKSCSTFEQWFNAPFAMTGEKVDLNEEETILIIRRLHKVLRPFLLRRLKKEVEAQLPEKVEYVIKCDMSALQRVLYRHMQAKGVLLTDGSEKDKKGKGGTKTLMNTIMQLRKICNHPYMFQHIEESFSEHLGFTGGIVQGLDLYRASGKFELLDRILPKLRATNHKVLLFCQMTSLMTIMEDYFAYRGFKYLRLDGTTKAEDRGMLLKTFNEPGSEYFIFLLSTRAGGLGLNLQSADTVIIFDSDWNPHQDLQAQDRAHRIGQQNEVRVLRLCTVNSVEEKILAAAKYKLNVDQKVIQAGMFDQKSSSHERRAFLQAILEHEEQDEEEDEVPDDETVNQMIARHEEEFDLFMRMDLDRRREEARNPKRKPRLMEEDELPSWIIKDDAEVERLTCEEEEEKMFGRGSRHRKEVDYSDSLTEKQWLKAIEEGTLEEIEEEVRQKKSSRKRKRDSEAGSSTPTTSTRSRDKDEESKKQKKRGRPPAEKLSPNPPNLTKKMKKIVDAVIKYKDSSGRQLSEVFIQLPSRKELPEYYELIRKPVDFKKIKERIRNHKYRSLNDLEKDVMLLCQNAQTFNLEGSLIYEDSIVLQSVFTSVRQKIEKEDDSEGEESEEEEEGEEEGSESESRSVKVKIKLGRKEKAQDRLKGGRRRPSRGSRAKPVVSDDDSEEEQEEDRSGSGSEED

Legend:
[1] = target: BRG1 (also known as SMARCA4) (mouse (endogenous in OT-I CD8+ T cells)) (UniProt Q3TKT4); experiment: co-IP; anti-BRG1 immunoprecipitation from naive CD8+ T cells, Western blot
[2] = target: BRG1 (also known as SMARCA4) (mouse (endogenous in OT-I CD8+ T cells)) (UniProt Q3TKT4); experiment: co-IP; anti-BRG1 antibody or rabbit normal IgG, protein A/G agarose beads, 4 °C, Western blot; lysates of effector OT-I CD8+ T cells (PR8-OVA, day 8 p.i.), BRD7 WT (Brd7fl/fl) and BRD7-deficient

B1: bromodomain-containing protein 7 (BRD7) (protein, UniProt O88665 1-651)
chain: MGKKHKKHKSDRHFYEEYVEKPLKLVLKVGGSEVTELSTGSSGHDSSLFEDRSDHDKHKDRKRKKRKKGEKQAPGEEKGRKRRRVKEDKKKRDRDRAENEVDRDLQCHVPIRLDLPPEKPLTSSLAKQEEVEQTPLQEALNQLMRQLQRKDPSAFFSFPVTDFIAPGYSMIIKHPMDFSTMKEKIKNNDYQSIEELKDNFKLMCTNAMIYNKPETIYYKAAKKLLHSGMKILSQERIQSLKQSIDFMSDLQKTRKQKERTDACQSGEDSGCWQREREDSGDAETQAFRSPAKDNKRKDKDVLEDKWRSSNSEREHEQIERVVQESGGKLTRRLANSQCEFERRKPDGTTTLGLLHPVDPIVGEPGYCPVRLGMTTGRLQSGVNTLQGFKEDKRNRVTPVLYLNYGPYSSYAPHYDSTFANISKDDSDLIYSTYGEDSDLPNNFSISEFLATCQDYPYVMADSLLDVLTKGGHSRSLQDLDMSSPEDEGQTRALDTAKEAEITQIEPTGRLESSSQDRLTALQAVTTFGAPAEVFDSEEAEVFQRKLDETTRLLRELQEAQNERLSTRPPPNMICLLGPSYREMYLAEQVTNNLKELTQQVTPGDVVSIHGVRKAMGISVPSPIVGNSFVDLTGECEEPKETSTAECGPDAS
binding [1]: no binding (condition: in naive CD8+ T cells)
binding [2]: binds
